Test results published in the supplement of paper PMC12067093, “Discovery and optimisation of a covalent ligand for TRIM25 and its application to targeted protein ubiquitination” (Chemical Science, 2025).
Some of the results follow.

Compound: Cc1cc(ccc1-c1ccccc1)C(=O)N1CCCN(CC1)C(=O)CCl [compound 10]
Test: probe-labelled cysteine peptide fold change vs DMSO (competition) (log2 fold change); higher = less target engagement (more negative = stronger competition)
Conditions: THP-1, incubation time: 4 h
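Further: competitive profiling in live THP-1 cells: cysteine peptides tagged with an iodoacetamide desthiobiotin (IA-DTB) probe, intensity after compound treatment relative to DMSO-treated cells.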

| Target | probe-labelled cysteine peptide fold change (10 µM) | probe-labelled cysteine peptide fold change (50 µM) |
| --- | --- | --- |
| MMTAG2_Q9BU76_179_AEDQTESSCESHRK (UniProt Q9BU76) | 0.00151 | -0.408 |
| MICALL1_Q8N3F8_194_CSSTLLPGAYENGPEEGTFVCAEHCAR (UniProt Q8N3F8) | -0.0852 | -1.04 |
| MRNIP_Q6NTE8_300_ATHPVTSGSERPCGK (UniProt Q6NTE8) | -0.175 | -0.334 |
| MRPL37_Q9BZE1_177_RETYCPVIVDNLIQLCK (UniProt Q9BZE1) | -0.189 | -0.208 |
| MIOS_Q9NXC5_854_DHAECPVSACTCK (UniProt Q9NXC5) | 0.00522 | -0.101 |
| MIEN1_Q9BRT3_33_IVVEYCEPCGFEATYLELASAVK (UniProt Q9BRT3) | 0.092 | -0.0126 |
| MRC2_Q9UBG0_950_CLTALPYICK (UniProt Q9UBG0) | -0.0797 | -0.336 |
| MINK1_Q8N4C8_269_FIDFIDTCLIK (UniProt Q8N4C8) | -0.175 | 0.104 |
| MRPL38_Q96DV4_290_QDQPIDFSEDARPSPCYQLAQR (UniProt Q96DV4) | -0.0378 | 0.127 |
| MPP2_Q14168_256_CHFDYDPAR (UniProt Q14168) | -0.0441 | 0.141 |
| MPP1_Q00013_179_DNLIPCK (UniProt Q00013) | -0.113 | -0.34 |
| MRC2_Q9UBG0_187_IYGSEEDLCALPYHEVYTIQGNSHGKPCTIPFK (UniProt Q9UBG0) | -0.0343 | -0.784 |
| MMS19_Q96T76_331_EVFQTASERVEAEGLAALHSLTACLSR (UniProt Q96T76) | 0.0802 | -0.418 |
| MNDA_P41218_274_VITISDYSECK (UniProt P41218) | -0.0501 | 0.0321 |
| MRPL37_Q9BZE1_177_ETYCPVIVDNLIQLCK (UniProt Q9BZE1) | -0.0516 | -0.0499 |
| MRPL37_Q9BZE1_153_NHIENQDECVLNVISHAR (UniProt Q9BZE1) | -0.0845 | -0.164 |
| MIB1_Q86YT6_462_RPDVDVNGQCAGHTAMQAASQNGHVDILK (UniProt Q86YT6) | 0.253 | -0.26 |
| MLYCD_O95822_206_VTWHSPCEVLQK (UniProt O95822) | -0.102 | -0.329 |
| MPP1_Q00013_454_KLQEAFDQACSSPQWVPVSWVY (UniProt Q00013) | -0.0366 | -0.104 |
| MKI67_P46013_3229_CAENPK (UniProt P46013) | -0.441 | -0.0742 |

Quoted at random: two entries already listed

| Target | probe-labelled cysteine peptide fold change (10 µM) | probe-labelled cysteine peptide fold change (50 µM) |
| --- | --- | --- |
| MPP1_Q00013_179_DNLIPCK (UniProt Q00013) | -0.113 | -0.34 |
| MKI67_P46013_3229_CAENPK (UniProt P46013) | -0.441 | -0.0742 |

Next part.

| Target | probe-labelled cysteine peptide fold change (10 µM) | probe-labelled cysteine peptide fold change (50 µM) |
| --- | --- | --- |
| MOB3A_Q96BX8_88_VNLIYGTISDGCTEQSCPVMSGGPK (UniProt Q96BX8) | 0.233 | 0.292 |
| MKI67_P46013_27_SGVDGPHFPLSLSTCLFGR (UniProt P46013) | 0.331 | -0.0578 |
| MRM3_Q9HC36_309_ASDHGWVCDQR (UniProt Q9HC36) | -0.221 | -0.709 |
| MKI67_P46013_1285_ADVEGELLACR (UniProt P46013) | -0.247 | -0.0599 |
| MMS19_Q96T76_331_VEAEGLAALHSLTACLSR (UniProt Q96T76) | 0.123 | -0.044 |
| MOB4_Q9Y3A3_134_HTLDGAACLLNSNK (UniProt Q9Y3A3) | -1.14 | -3.77 |
| MMTAG2_Q9BU76_103_EDFAEVCKR (UniProt Q9BU76) | -0.168 | -0.321 |
| MRM3_Q9HC36_235_SAAGAGCSK (UniProt Q9HC36) | -0.109 | -0.000687 |
| MLH1_P40692_77_KEDLDIVCER (UniProt P40692) | -0.0728 | 0.206 |
| MICALL1_Q8N3F8_597_GSSGPQPAKPCSGATPTPLLLVGDR (UniProt Q8N3F8) | -0.17 | -0.459 |
| MOB3A_Q96BX8_186_IAQMGSEAHVNTCYK (UniProt Q96BX8) | -0.137 | 0.206 |
| MORC3_Q14149_255_AYCSILYLK (UniProt Q14149) | -0.0815 | 0.456 |
| MLH1_P40692_494_EMTAACTPR (UniProt P40692) | -0.182 | -0.12 |
| MPG_P29372_215_DRELCSGPSK (UniProt P29372) | -0.0933 | -0.129 |
| MPC2_O95563_54_WGLVCAGLADMARPAEK (UniProt O95563) | -0.141 | -1.31 |
| MIER1_Q8N108_293_EELSVWTEEECRNFEQGLK (UniProt Q8N108) | -0.106 | -0.195 |
| MRPL22_Q9NWU5_70_RPAEIYHCR (UniProt Q9NWU5) | -0.086 | -0.0325 |
| MNAT1_P51948_49_GAGNCPECGTPLR (UniProt P51948) | 0.196 | 0.366 |
| MKRN1_Q9UHC7_69_YFMHGVCK (UniProt Q9UHC7) | 0.144 | -0.259 |
